Reference: paper PMC12241633, “Irinotecan alleviates chemoresistance to anthracyclines through the inhibition of AARS1-mediated BLM lactylation and homologous recombination repair” (Signal Transduction and Targeted Therapy, 2025)
These are yes or no findings as the source states them, for the method shown. In cells and extracts the contact can be indirect. Some binding calls cover weakened binding; strength is not graded here. Blank lines part the entries; values can stand above or below the binder they belong to.

Sequences of proteins named here, by UniProt entry; tags and fusion partners are left off. A change or cut given only in a name is not applied to a line headed by its entry.
UniProt P54132: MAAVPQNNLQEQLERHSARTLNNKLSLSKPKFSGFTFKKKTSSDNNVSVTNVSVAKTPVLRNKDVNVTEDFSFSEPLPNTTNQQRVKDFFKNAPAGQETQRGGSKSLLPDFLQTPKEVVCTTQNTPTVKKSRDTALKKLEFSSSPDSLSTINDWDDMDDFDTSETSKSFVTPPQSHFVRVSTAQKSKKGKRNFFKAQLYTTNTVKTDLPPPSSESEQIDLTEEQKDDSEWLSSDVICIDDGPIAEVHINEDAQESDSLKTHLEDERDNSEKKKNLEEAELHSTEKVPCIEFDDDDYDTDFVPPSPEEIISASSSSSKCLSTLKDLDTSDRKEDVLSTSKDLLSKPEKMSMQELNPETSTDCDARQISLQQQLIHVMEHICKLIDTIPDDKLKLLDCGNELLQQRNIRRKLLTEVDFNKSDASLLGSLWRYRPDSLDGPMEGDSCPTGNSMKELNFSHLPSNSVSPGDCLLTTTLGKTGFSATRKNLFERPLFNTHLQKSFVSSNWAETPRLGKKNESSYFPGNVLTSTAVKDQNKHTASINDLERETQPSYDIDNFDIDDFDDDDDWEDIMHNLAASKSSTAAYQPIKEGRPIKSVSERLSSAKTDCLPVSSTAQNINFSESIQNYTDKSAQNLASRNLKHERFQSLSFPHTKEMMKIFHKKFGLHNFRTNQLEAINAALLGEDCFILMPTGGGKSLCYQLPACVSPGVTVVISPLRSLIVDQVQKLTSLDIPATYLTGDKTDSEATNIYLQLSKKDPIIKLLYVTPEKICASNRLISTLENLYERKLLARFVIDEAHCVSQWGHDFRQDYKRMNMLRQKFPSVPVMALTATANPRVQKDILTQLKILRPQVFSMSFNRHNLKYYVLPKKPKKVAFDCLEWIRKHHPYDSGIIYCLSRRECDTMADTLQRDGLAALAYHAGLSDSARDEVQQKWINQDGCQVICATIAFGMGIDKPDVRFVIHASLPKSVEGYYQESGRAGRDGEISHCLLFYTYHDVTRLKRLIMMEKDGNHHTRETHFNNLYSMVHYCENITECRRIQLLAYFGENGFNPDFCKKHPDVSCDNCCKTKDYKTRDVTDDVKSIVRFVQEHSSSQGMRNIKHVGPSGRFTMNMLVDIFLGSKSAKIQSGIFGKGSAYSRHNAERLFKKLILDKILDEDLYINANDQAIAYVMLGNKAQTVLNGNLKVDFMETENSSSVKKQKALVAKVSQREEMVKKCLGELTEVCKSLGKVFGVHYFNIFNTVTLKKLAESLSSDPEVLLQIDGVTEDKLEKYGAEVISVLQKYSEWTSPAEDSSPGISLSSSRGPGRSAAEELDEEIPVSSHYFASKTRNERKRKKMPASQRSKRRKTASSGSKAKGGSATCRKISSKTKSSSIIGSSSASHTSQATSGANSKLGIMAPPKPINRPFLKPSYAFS

Biological target: HA-tagged K24R BLM (human) (UniProt P54132)
Assay: co-IP; anti-HA IP of HA-BLM (WT or K24R) from E-resistant-BKO UM-UC-3 lysates in NP-40 buffer, 4 °C, protein A/G magnetic beads; endogenous partners detected by western blot; cells untreated or treated with 20 mM sodium lactate or 20 mM sodium oxamate for 24 h, or with AARS1 overexpression or knockdown

binding: binds
B1: DNA2 (protein, UniProt P51530 1-1060)
chain: MEQLNELELLMEKSFWEEAELPAELFQKKVVASFPRTVLSTGMDNRYLVLAVNTVQNKEGNCEKRLVITASQSLENKELCILRNDWCSVPVEPGDIIHLEGDCTSDTWIIDKDFGYLILYPDMLISGTSIASSIRCMRRAVLSETFRSSDPATRQMLIGTVLHEVFQKAINNSFAPEKLQELAFQTIQEIRHLKEMYRLNLSQDEIKQEVEDYLPSFCKWAGDFMHKNTSTDFPQMQLSLPSDNSKDNSTCNIEVVKPMDIEESIWSPRFGLKGKIDVTVGVKIHRGYKTKYKIMPLELKTGKESNSIEHRSQVVLYTLLSQERRADPEAGLLLYLKTGQMYPVPANHLDKRELLKLRNQMAFSLFHRISKSATRQKTQLASLPQIIEEEKTCKYCSQIGNCALYSRAVEQQMDCSSVPIVMLPKIEEETQHLKQTHLEYFSLWCLMLTLESQSKDNKKNHQNIWLMPASEMEKSGSCIGNLIRMEHVKIVCDGQYLHNFQCKHGAIPVTNLMAGDRVIVSGEERSLFALSRGYVKEINMTTVTCLLDRNLSVLPESTLFRLDQEEKNCDIDTPLGNLSKLMENTFVSKKLRDLIIDFREPQFISYLSSVLPHDAKDTVACILKGLNKPQRQAMKKVLLSKDYTLIVGMPGTGKTTTICTLVRILYACGFSVLLTSYTHSAVDNILLKLAKFKIGFLRLGQIQKVHPAIQQFTEQEICRSKSIKSLALLEELYNSQLIVATTCMGINHPIFSRKIFDFCIVDEASQISQPICLGPLFFSRRFVLVGDHQQLPPLVLNREARALGMSESLFKRLEQNKSAVVQLTVQYRMNSKIMSLSNKLTYEGKLECGSDKVANAVINLRHFKDVKLELEFYADYSDNPWLMGVFEPNNPVCFLNTDKVPAPEQVEKGGVSNVTEAKLIVFLTSIFVKAGCSPSDIGIIAPYRQQLKIINDLLARSIGMVEVNTVDKYQGRDKSIVLVSFVRSNKDGTVGELLKDWRRLNVAITRAKHKLILLGCVPSLNCYPPLEKLLNHLNSEKLIIDLPSREHESLCHILGDFQRE

binding: binds
B2: RAD54 (protein, UniProt Q92698 1-747)
chain: MRRSLAPSQLAKRKPEGRSCDDEDWQPGLVTPRKRKSSSETQIQECFLSPFRKPLSQLTNQPPCLDSSQHEAFIRSILSKPFKVPIPNYQGPLGSRALGLKRAGVRRALHDPLEKDALVLYEPPPLSAHDQLKLDKEKLPVHVVVDPILSKVLRPHQREGVKFLWECVTSRRIPGSHGCIMADEMGLGKTLQCITLMWTLLRQSPECKPEIDKAVVVSPSSLVKNWYNEVGKWLGGRIQPLAIDGGSKDEIDQKLEGFMNQRGARVSSPILIISYETFRLHVGVLQKGSVGLVICDEGHRLKNSENQTYQALDSLNTSRRVLISGTPIQNDLLEYFSLVHFVNSGILGTAHEFKKHFELPILKGRDAAASEADRQLGEERLRELTSIVNRCLIRRTSDILSKYLPVKIEQVVCCRLTPLQTELYKRFLRQAKPAEELLEGKMSVSSLSSITSLKKLCNHPALIYDKCVEEEDGFVGALDLFPPGYSSKALEPQLSGKMLVLDYILAVTRSRSSDKVVLVSNYTQTLDLFEKLCRARRYLYVRLDGTMSIKKRAKVVERFNSPSSPDFVFMLSSKAGGCGLNLIGANRLVMFDPDWNPANDEQAMARVWRDGQKKTCYIYRLLSAGTIEEKIFQRQSHKKALSSCVVDEEQDVERHFSLGELKELFILDEASLSDTHDRLHCRRCVNSRQIRPPPDGSDCTSDLAGWNHCTDKWGLRDEVLQAAWDAASTAITFVFHQRSHEEQRGLR
